# Reference: PubChem BioAssay AID504467 (National Center for Advancing Translational Sciences (NCATS), 2011)
# In all, about 330,000 compounds went through this assay and about 7,700 (2.3%) were called active. Where a call stands in place of a potency, no number is given. Inconclusive results, whose numbers are uncertain, are shown with a selection of clear calls. Calls follow the shape of the dose curve; as a rule, active = well fitted inhibition curve with a large enough effect; inconclusive = small, poorly fitted or top-dose-only effect, or effect the other way; inactive = flat fitted curve, though single readings scatter. A potency beside an inconclusive call is a rough fit, not a confirmed value.
# Assay: qHTS screen for small molecules that inhibit ELG1-dependent DNA repair in human embryonic kidney (HEK293T) cells expressing luciferase-tagged ELG1; also: nearly all actives have a fitted effect of over 55% in size
# Details: HEK293T ELG1-luciferase reporter, luminescence, 16 h, DNA damage induced by 5-fluorouridine; series mostly up to 46.1 µM
# Procedure, shortened: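 5-Fluorouridine DNA damage + compound/DMSO, 2,000 cells/well, 16 h, 37 °C/5% CO2. ONE-Glo, 30 min RT, luminescence. Readout = decrease in reporter signal.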
# Potency is read from the fitted curve at half-maximal effect.
row,SMILES,Potency
1,Cc1cccc(C2N=C(N)Nc3nc4ccccc4n32)c1 (stereo not given),inactive
2,O=C(Cc1ccccc1)Nc1cccc(-c2nnc(-c3ccco3)o2)c1,"inconclusive: 25.9 µM [inhibitor, single point]"
3,O=C(Nc1cccc(Cl)c1)c1cc(N=Nc2ccc([N+](=O)[O-])cc2Cl)ccc1O,inactive
4,COc1cc(/C=N/NC(=S)N/N=C/c2cc(OC)c(OC)c(OC)c2)cc(OC)c1OC,"inconclusive: 6.51 µM [activator, partial curve]"
5,CC(=O)N(C)c1ccc(NC(=O)CCN2C(=O)c3ccccc3C2=O)cc1,inactive
6,O=C(Nc1ccccc1C(=O)N/N=C/c1ccco1)c1ccccc1,inactive
7,O=c1[nH]c2ccc(NS(=O)(=O)c3ccc4ccccc4c3)cc2[nH]1,"inconclusive: 10.3 µM [inhibitor, partial curve, poor fit]"
8,CC(C)Oc1ccc(Nc2ncnc3ccccc23)cc1,"inconclusive: 2.31 µM [activator, partial curve]"
9,O=C(Nc1ccccc1Cl)C1CCN(S(=O)(=O)c2cccc3nonc23)CC1,inactive
10,CCCc1cc(=O)[nH]c(SCC(=O)Nc2cc(S(=O)(=O)N3CCOCC3)ccc2Cl)n1,inactive
11,Cc1nnc(SCC(=O)c2c(N)n(C3CC3)c(=O)[nH]c2=O)n1C,"inconclusive: 0.013 µM [inhibitor, partial curve, poor fit]"
12,Cc1cccc(OCC(=O)Nc2ccc(NC(=O)c3ccco3)c(C)c2)c1,inactive
13,O=C(CSc1nc2ccccc2c(=O)[nH]1)Nc1nc(-c2ccc(Br)cc2)cs1,inactive
14,CC1(C)Cc2c(sc3nc(-c4cccs4)n(N)c(=O)c23)CO1,"inconclusive: 25.9 µM [inhibitor, single point]"
15,Cc1nn(-c2cccc(Cl)c2)c2nc(-c3ccncc3)cc(C(=O)N3CCOCC3)c12,"inconclusive: 29.1 µM [inhibitor, single point]"
16,COCc1ccc(CN2CCC(N3CCC(C(=O)N4CCCC4)CC3)CC2)o1,"inconclusive: 16.4 µM [activator, partial curve, poor fit]"
17,CC(=O)CCCC(NS(=O)(=O)CCC(Cl)(Cl)Cl)c1ccccc1 (stereo not given),inactive
18,CN(C)S(=O)(=O)N(CC(=O)N1CCC(Cc2ccccc2)CC1)c1ccccc1,"inconclusive: 13 µM [inhibitor, partial curve]"
19,COc1ccc([C@H]2CC(=O)C=C(c3ccc(NC(C)=O)cc3)C2)cc1OC,"inconclusive: 9.2 µM [inhibitor, partial curve, poor fit]"
20,COc1cccc(C2=NOC(C(=O)NC(C)C)C2)c1 (stereo not given),inactive

# 2 entries from above in another layout.
row	SMILES	Potency
6	O=C(Nc1ccccc1C(=O)N/N=C/c1ccco1)c1ccccc1	inactive
8	CC(C)Oc1ccc(Nc2ncnc3ccccc23)cc1	inconclusive: 2.31 µM [activator, partial curve]
